Experimental data from article PMC8458541.
These are yes or no findings as the source states them, for the method shown. In cells and extracts the contact can be indirect. Some entries that bind do so weakly or less than the wild type.

By UniProt entry, the sequences of proteins in these tests, tags left out.
UniProt Q62193: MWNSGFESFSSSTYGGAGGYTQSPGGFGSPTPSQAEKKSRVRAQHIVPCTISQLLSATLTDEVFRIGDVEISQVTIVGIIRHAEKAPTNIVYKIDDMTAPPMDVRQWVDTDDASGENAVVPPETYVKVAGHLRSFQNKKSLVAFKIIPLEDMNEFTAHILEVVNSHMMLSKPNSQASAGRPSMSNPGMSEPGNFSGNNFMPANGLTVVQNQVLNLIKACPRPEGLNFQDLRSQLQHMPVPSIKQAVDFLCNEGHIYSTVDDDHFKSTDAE
UniProt P09405: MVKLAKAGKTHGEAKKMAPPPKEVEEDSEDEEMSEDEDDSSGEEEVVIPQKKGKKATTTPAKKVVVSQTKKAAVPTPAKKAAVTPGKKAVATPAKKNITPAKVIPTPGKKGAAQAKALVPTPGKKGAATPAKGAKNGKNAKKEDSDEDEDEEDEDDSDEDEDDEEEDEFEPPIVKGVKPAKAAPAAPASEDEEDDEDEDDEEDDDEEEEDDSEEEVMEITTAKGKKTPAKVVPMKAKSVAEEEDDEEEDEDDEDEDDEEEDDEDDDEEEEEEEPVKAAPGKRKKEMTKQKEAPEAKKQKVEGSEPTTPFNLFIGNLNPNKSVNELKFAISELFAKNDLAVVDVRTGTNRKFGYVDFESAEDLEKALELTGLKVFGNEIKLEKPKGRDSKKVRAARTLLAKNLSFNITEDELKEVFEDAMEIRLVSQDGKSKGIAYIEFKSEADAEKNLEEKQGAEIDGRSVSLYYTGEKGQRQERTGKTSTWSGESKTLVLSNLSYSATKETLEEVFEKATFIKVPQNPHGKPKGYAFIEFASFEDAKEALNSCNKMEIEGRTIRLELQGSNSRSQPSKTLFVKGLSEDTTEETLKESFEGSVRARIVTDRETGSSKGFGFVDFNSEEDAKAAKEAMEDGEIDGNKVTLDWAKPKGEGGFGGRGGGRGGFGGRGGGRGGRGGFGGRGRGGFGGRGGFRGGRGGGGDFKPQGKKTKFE

Experiments:
[1] = biological target: RPA32, subunit of the replication protein A (RPA) complex (mouse (endogenous in mESCs and MEFs)) (UniProt Q62193); assay: co-IP; immunoprecipitation with 2.5 ug RPA32 antibody on Protein G Dynabeads from RIPA lysates of MEFs with vector or ectopic Discn; cells normal or treated with HU, etoposide or heat shock; NCL detected by immunoblot; isotype IgG as control
[2] = biological target: RPA32, subunit of the replication protein A (RPA) complex (mouse (endogenous in mESCs and MEFs)) (UniProt Q62193); assay: co-IP; immunoprecipitation with 2.5 ug RPA32 antibody on Protein G Dynabeads from RIPA lysates of mouse ESCs (Discn knockdown control KD-C, KD-1, KD-2); cells normal or treated with HU (2 mM, 4 h); NCL detected by immunoblot; isotype IgG as control

Which binding [1] does the source give for “nucleolin (NCL) (from UniProt P09405 1-707)” here?
The binding was “binds”.

What about the binding [2] of the same substance?
Its binding is “binds”.
